From patent US12312411 (Takeda / Millennium, dated 2025)
These are yes or no findings as the source states them, for the method shown. Some binding calls cover weakened binding; strength is not graded here.

Chains of the proteins cited; added tags and fusions are not shown. Lines headed by an entry give the natural chain unless they say otherwise; changes in a name come on top.
UniProt P28907: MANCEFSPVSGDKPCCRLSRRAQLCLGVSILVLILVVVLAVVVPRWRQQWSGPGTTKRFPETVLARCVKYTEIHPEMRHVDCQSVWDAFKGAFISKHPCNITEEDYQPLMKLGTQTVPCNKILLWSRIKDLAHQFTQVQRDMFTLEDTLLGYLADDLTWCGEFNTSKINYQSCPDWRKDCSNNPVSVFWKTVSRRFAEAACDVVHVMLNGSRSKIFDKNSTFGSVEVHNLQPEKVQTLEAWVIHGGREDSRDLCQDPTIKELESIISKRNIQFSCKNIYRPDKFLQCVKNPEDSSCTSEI
UniProt Q5VAN0: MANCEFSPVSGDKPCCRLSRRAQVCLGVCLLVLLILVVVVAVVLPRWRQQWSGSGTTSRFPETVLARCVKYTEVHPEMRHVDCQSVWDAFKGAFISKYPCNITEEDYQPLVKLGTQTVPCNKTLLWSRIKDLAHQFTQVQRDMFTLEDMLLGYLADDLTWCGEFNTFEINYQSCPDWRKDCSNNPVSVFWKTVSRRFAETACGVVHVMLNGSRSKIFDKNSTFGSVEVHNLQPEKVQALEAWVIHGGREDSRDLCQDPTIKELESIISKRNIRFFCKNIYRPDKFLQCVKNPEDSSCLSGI

What was measured:
[1] = target: human CD38 on human multiple myeloma MOLP-8 cells (human) (UniProt P28907); assay: flow cytometry, IgG1 on MOLP-8 cells
[2] = target: cynomolgus CD38 on cells expressing recombinant cynomolgus CD38 (cynomolgus) (UniProt Q5VAN0); assay: flow cytometry, IgG1 on cells expressing recombinant cynomolgus CD38

B1: CD38TM6 formatted into human IgG1 (antibody, V domains shown)
VH: EVQLLESGGGLVQPGGSLRLSCAASGFTFDDYGMTWVRQAPGKGLEWVSGINWNGGSTGYADSVKGRFTISRDNSKNTLYLQMNSLRAEDTAVYYCARGGLFHDSSGYYFGHWGQGTLVTVSS
VL: QSVLTQPPSASGTPGQRVTISCSGSSSNIGNSYVSWYQQLPGTAPKLLIYRNNQRPSGVPDRFSGSKSGTSASLAISGLRSEDEADYYCSAWDDNLSVLFGGGTKLTVL
[1]
  binding: binds
[2]
  binding: binds
